At least one structure is not confirmed: it was looked up by name or label, or the drawing left a doubt.
Tested on: Staphylococcus aureus MRSA strain USA300
Assay: In vitro MRSA cell growth inhibition (bacterial count CFU/ml), statin or ZA with oxacillin
Assay type: cell-based
Conditions: combination with the β-lactam antibiotic oxacillin

CC(C)n1c(/C=C/C(O)CC(O)CC(=O)O)c(-c2ccc(F)cc2)c2ccccc21 (stereo not shown) [fluvastatin]
MRSA growth (CFU/ml) with oxacillin plus compound: did not alter the MRSA antibiotic-resistant phenotype

Source: US20200345701A1, “USE OF STATINS IN OVERCOMING RESISTANCE TO BETA-LACTAM ANTIBIOTICS IN BACTERIAL SPECIES SYNTHETIZING ISOPRENOIDS USING THE MEVALONATE SYNTHETIC PATHWAY” (CONSEJO SUPERIOR DE INVESTIGACIONES CIENTIFICAS (CSIC), priority 2017, published 2020)
